Data from US20040142862A1, “Methods and compositions for modulating agonist-induced downregulation of G protein-coupled receptors” (The Regents of the University of California, priority 2002, published 2004).
These are yes or no findings as the source states them, for the method shown. Binding seen in cells or lysates may run through a third protein. Some results given as binding are weak or reduced against the parent protein; the word gives no strength. Where a sequence is shown, tags or fusion partners need not be part of it.

Amino acid sequences for entries named in this document (tags omitted).
UniProt P32300: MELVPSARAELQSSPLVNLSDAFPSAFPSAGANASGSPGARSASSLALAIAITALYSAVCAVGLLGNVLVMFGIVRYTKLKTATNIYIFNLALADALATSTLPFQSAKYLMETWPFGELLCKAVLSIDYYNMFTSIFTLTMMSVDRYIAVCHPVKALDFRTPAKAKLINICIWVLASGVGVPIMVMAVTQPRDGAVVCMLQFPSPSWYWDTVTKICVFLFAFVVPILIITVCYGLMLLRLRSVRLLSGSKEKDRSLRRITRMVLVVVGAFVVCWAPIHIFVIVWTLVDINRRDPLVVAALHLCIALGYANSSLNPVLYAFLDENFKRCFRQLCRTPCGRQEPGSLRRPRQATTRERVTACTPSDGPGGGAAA

Columns and labels:
[1] = biological target: epitope (FLAG)-tagged delta opioid receptor (DOR-1), full length, stably expressed in HEK293 cells (UniProt P32300); experiment: co-immunoprecipitation from HEK293 cell lysates
[2] = biological target: epitope (FLAG)-tagged delta opioid receptor (DOR-1), full length, stably expressed in HEK293 cells (UniProt P32300); experiment: co-immunoprecipitation: receptor immunoprecipitated, blotted with anti-GFP
[3] = biological target: epitope (FLAG)-tagged delta opioid receptor (DOR-1), full length, stably expressed in HEK293 cells (UniProt P32300); experiment: co-immunoprecipitation with DOR from cells overexpressing GFP-cGASP1

Measured: binding

B1: GFP-tagged cGASP1 stably overexpressed in HEK293 cells (protein, not shown: large carriers; small tags and cut ends)
chain: SETEEETIFGSWFWDGKEVSEEAGPCCVSKPEDDEEMIVESWFWSRDKAIKETGTVATCESKPENEEGAIVGSWFEAEDEVDNRTDNGSNCGSRTLADEDEAIVGSWFWAGDEAHFESNPSPVFRAICRSTCSVEQEPDPSRRPQSWEEVTVQFKPGPWGRVGFPSISPFRFPKEAASLFCEMFGGKPRNMVLSPEGEDQESLLQPDQPSPEFPFQYDPSYRSVQEIREHLRAKESTEPESSSCNCIQCELKIGSEEFEELLLLMEKIRDPFIHEISKIAMGMRSASQFTRDFIRDSGVVSLIETLLNYPSSRVRTSFLENMIRMAPPYPNLNIIQTYICKVCEETLAYSVDSPEQLSGIRMIRHLTTTTDYHTLVANYMSGFLSLLATGNAKTRFHVLKMLLNLSENLFMTKELLSAEAVSEFIGLFNREETNDNIQIVLAIFENIGNNIKKETVFSDDDFNIEPLISAFHKVEKFAKELQGKTDNQNDPEGDQEN
binds: all assays above
